Strings that start with PEPTIDE1 are HELM notation: dots part the residues, brackets hold end groups and non-standard residues.
Experiment: general procedure: Fmoc solid-phase peptide synthesis; Fmoc-Leu-Wang resin; PyBOP/HOBt/DIPEA; HATU/DIPEA

PEPTIDE1{[Nle6Trz].[NLys].K.P.Y.[Tle].L}|PEPTIDE2{[Nle6Trz].[NLys].K.P.Y.[Tle].L}|PEPTIDE3{[Nle6Trz].[NLys].K.P.Y.[Tle].L}|CHEM1{[TRAPam3]}$PEPTIDE1,CHEM1,1:R3-1:R1|PEPTIDE2,CHEM1,1:R3-1:R2|PEPTIDE3,CHEM1,1:R3-1:R3$$$V2.0
final HPLC purity (conjugation step, 220 nm): >95% | conjugation yield (conjugation step, on TRAP(alkyne)3): 42%

H-Nle(6-N3)-NLys-Lys-Pro-Tyr-Tle-Leu-OH
final HPLC purity (whole synthesis, analytical HPLC): >99%
